# Reference: PubChem BioAssay AID540276 (National Center for Advancing Translational Sciences (NCATS), 2011)
# The campaign covered roughly 300,000 compounds. About 5,400 (1.8%) were called active. Inconclusive means that the source gave no clear call. Such entries were picked first, then a sample of the others. Calls follow the shape of the full dose curve; tested in HEK293 cells. Where the call is inconclusive, the potency comes from a doubtful curve fit.
# Assay: qHTS for inhibitors of binding or entry into cells for Marburg Virus
# Settings: Marburg virus pseudotyped entry inhibition, cell reporter; series mostly up to 37.8 µM
# Potency is read from the fitted curve at half-maximal effect.
row,Structure (SMILES),Potency
1,Cc1noc(C)c1COc1ccc(C(=O)NNC(=O)c2ccccc2)cc1,"inconclusive: 1.78 µM [inhibitor, partial curve, poor fit]"
2,C#CCn1c(=NC(=O)c2ccco2)sc2cccc(Cl)c21,inactive
3,CN(C)S(=O)(=O)c1cccc(COC(=O)CNC(=O)c2ccc(Br)o2)c1,"inconclusive: 35.5 µM [activator, single point]"
4,CCc1cc(C(=O)N/N=C/c2c(C)[nH]c3ccccc23)cs1,"inconclusive: 1.12 µM [activator, partial curve]"
5,COc1ccccc1CNC(=O)CCc1c(C)nc2c(c(C)nn2-c2ccc(C)c(C)c2)c1C,inactive
6,Cc1ccc(-c2nc(CN(CC3CCC3)CC3CCCO3)c(C)o2)s1 (stereo not drawn),"inconclusive: 1.12 µM [inhibitor, full curve, poor fit]"
7,CC1CCC(NC(=O)c2ccc3c(c2)N(Cc2ccccc2)C(=O)c2ccccc2S3(=O)=O)CC1 (stereo not drawn),"inconclusive: 35.5 µM [inhibitor, single point]"
8,COCC(=O)N(Cc1cc2cc(OC)ccc2[nH]c1=O)c1ccc(C)cc1,inactive
9,COCCCNC(=O)CN(c1ccc(F)cc1)S(=O)(=O)c1ccc2c(c1)OCCO2,"inconclusive: 35.5 µM [activator, partial curve, poor fit]"
10,COc1ccc(OC)c(NC(=O)CSc2nc3n[nH]c(C)c3c(=N)n2-c2cccc(Cl)c2C)c1,active: 17.8 µM
11,CN(CC(=O)Nc1cccc(F)c1)C(=O)c1ccccc1CCc1ccccc1,"inconclusive: 35.5 µM [inhibitor, single point]"
12,CN1CCN(CC(=O)Nc2ccc(Cl)cc2C(=O)c2ccccc2)CC1,"inconclusive: 35.5 µM [inhibitor, single point]"
13,Nc1c(C(=O)NCCN2CCOCC2)c2nc3ccccc3nc2n1-c1ccc2c(c1)OCO2,inactive
14,CC(=O)C1C(c2cccc(Oc3ccccc3)c2)NC(=O)NC1(O)C(F)(F)F (stereo not drawn),"inconclusive: 17.8 µM [activator, partial curve, poor fit]"
15,CC1(C)Cc2ccccc2C(/C(=N\Nc2cccc(Cl)c2)C(N)=O)=N1,"inconclusive: 35.5 µM [inhibitor, single point]"
16,CC(C)CC(=O)NC(=S)Nc1ccccc1F,inactive
17,CCn1c(SCC(=O)Nc2nncs2)nnc1-c1ccco1,"inconclusive: 8.91 µM [activator, partial curve, poor fit]"
18,Cc1nccn1S(=O)(=O)c1cc([N+](=O)[O-])ccc1Cl,"inconclusive: 4.47 µM [inhibitor, single point]"

# Sorted by molecular weight (ascending): part of the list above
row,Structure (SMILES),Potency
16,CC(C)CC(=O)NC(=S)Nc1ccccc1F,inactive
13,Nc1c(C(=O)NCCN2CCOCC2)c2nc3ccccc3nc2n1-c1ccc2c(c1)OCO2,inactive
7,CC1CCC(NC(=O)c2ccc3c(c2)N(Cc2ccccc2)C(=O)c2ccccc2S3(=O)=O)CC1 (stereo not drawn),"inconclusive: 35.5 µM [inhibitor, single point]"
